Experimental data published in publication PMC3400623.
Results are given in words; binding and its absence hold for the method and conditions named. Binding seen in cells or lysates may run through a third protein. Some entries that bind do so weakly or less than the wild type. For part of these data: Tags and fused reporters may be left off the sequences shown. Blank lines part the entries; values can stand above or below the molecule they belong to.

The chains behind the UniProt entries cited, without tags or fusion partners.
UniProt P15806: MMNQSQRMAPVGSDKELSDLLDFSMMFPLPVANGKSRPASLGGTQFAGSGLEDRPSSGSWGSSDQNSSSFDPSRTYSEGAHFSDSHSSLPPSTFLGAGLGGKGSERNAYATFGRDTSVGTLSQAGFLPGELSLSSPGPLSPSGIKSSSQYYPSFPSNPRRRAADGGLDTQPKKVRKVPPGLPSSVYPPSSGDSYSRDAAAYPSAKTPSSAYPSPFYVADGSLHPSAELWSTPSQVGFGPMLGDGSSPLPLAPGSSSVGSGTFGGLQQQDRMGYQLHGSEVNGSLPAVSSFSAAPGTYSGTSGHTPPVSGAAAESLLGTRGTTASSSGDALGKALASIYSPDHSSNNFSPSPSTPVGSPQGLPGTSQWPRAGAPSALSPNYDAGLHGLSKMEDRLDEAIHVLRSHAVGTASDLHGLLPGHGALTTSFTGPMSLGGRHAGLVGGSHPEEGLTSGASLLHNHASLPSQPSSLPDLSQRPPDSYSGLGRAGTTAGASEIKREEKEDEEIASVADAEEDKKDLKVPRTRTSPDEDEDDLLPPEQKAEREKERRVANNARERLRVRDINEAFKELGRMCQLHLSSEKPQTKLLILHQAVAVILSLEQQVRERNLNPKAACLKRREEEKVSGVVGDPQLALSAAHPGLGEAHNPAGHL

Legend:
[1] = biological target: T1, endogenous PIASy of cultured mouse mesangial cells (mouse (endogenous in mouse mesangial cells)) (UniProt Q9JM05); test: co-IP; endogenous proteins, mouse mesangial cell lysate in 20 mmol/L Tris-HCl pH 7.4, 150 mmol/L NaCl, 0.5% NP-40; IP with anti-PIAS4 antibody and protein A agarose, overnight at 4°C; Western blot with E12 antibody
T1 sequence: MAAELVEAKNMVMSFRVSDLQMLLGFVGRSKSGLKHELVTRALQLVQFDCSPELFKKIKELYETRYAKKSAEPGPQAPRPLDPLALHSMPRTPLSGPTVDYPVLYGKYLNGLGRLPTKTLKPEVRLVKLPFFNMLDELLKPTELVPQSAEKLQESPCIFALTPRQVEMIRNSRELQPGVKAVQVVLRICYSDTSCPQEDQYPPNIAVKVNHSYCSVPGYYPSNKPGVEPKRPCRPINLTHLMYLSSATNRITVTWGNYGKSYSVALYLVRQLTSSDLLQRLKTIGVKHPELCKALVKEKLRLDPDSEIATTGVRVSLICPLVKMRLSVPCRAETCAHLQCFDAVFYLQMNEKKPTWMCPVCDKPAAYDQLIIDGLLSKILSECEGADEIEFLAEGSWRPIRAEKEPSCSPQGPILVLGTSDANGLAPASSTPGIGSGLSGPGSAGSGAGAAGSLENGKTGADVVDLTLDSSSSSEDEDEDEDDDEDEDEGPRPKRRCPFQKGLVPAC

[2] = biological target: T2, flag epitope-tagged PIASy (mouse) (UniProt Q9JM05); test: co-IP; COS7 cells cotransfected, lysed 48 h later in 20 mmol/L Tris-HCl pH 7.4, 150 mmol/L NaCl, 0.5% NP-40; IP with anti-flag M2 affinity gel or with anti-myc (9E10) and protein G agarose, overnight at 4°C; Western blot
T2 sequence: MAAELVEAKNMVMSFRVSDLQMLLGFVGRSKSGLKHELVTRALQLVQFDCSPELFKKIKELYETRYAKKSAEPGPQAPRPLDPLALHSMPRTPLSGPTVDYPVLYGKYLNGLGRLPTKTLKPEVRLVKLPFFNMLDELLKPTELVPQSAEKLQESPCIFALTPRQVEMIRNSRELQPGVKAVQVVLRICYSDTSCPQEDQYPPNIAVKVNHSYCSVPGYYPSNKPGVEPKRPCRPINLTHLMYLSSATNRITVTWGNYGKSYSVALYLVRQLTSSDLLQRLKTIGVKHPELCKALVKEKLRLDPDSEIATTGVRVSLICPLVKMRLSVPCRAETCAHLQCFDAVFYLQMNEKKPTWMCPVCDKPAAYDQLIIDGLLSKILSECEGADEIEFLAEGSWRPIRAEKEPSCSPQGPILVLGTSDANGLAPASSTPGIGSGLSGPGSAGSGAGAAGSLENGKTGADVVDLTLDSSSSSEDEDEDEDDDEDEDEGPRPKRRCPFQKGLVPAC

[3] = biological target: myc epitope-tagged E12 (mouse) (UniProt P15806); test: as above

binding [1]: binds
Molecule: endogenous E12 of cultured mouse mesangial cells (from UniProt P15806 1-651)

binding [2]: binds
Molecule: myc epitope-tagged E12 (from UniProt P15806 1-651)

binding [3]: binds
B1: flag epitope-tagged PIASy (protein, UniProt Q9JM05 1-507)
chain: MAAELVEAKNMVMSFRVSDLQMLLGFVGRSKSGLKHELVTRALQLVQFDCSPELFKKIKELYETRYAKKSAEPGPQAPRPLDPLALHSMPRTPLSGPTVDYPVLYGKYLNGLGRLPTKTLKPEVRLVKLPFFNMLDELLKPTELVPQSAEKLQESPCIFALTPRQVEMIRNSRELQPGVKAVQVVLRICYSDTSCPQEDQYPPNIAVKVNHSYCSVPGYYPSNKPGVEPKRPCRPINLTHLMYLSSATNRITVTWGNYGKSYSVALYLVRQLTSSDLLQRLKTIGVKHPELCKALVKEKLRLDPDSEIATTGVRVSLICPLVKMRLSVPCRAETCAHLQCFDAVFYLQMNEKKPTWMCPVCDKPAAYDQLIIDGLLSKILSECEGADEIEFLAEGSWRPIRAEKEPSCSPQGPILVLGTSDANGLAPASSTPGIGSGLSGPGSAGSGAGAAGSLENGKTGADVVDLTLDSSSSSEDEDEDEDDDEDEDEGPRPKRRCPFQKGLVPAC
